These are yes or no findings as the source states them, for the method shown. Binding seen in cells or lysates may run through a third protein. For part of these data: Binding can be weak; no strength is given.
Assays:
Test in all cases: split reporter
[1] = target: hxt1-2TM-Cub-GST (S. cerevisiae)
[2] = target: gal2-8TM-Cub-GST (S. cerevisiae)
[3] = target: hxt1-12TM-Cub-GST (S. cerevisiae)
[4] = target: gap1-8TM-Cub-GST (S. cerevisiae)
[5] = target: hxt1-6TM-Cub-GST (S. cerevisiae)
[6] = target: gap1-12TM-Cub-GST (S. cerevisiae)
[7] = target: gal2-6TM-Cub-GST (S. cerevisiae)
[8] = target: gap1-2TM-Cub-GST (S. cerevisiae)
[9] = target: ssy1-4TM-Cub-GST (S. cerevisiae)
[10] = target: agp1-2TM-Cub-GST (S. cerevisiae)
[11] = target: agp1-6TM-Cub-GST (S. cerevisiae)
[12] = target: agp1-8TM-Cub-GST (S. cerevisiae)
[13] = target: gap1-6TM-Cub-GST (S. cerevisiae)
[14] = target: ssy1-10TM-Cub-GST (S. cerevisiae)
[15] = target: gal2-2TM-Cub-GST (S. cerevisiae)

binding [1]: no binding
binding [2]: no binding
binding [3]: no binding
binding [4]: binds
binding [5]: no binding
binding [6]: binds weakly
binding [7]: no binding
binding [8]: no binding
binding [9]: binds
binding [10]: binds
binding [11]: binds
binding [12]: binds
binding [13]: binds
binding [14]: binds
binding [15]: no binding
B1: Shr3-NubA (protein, UniProt Q02774 1-210)
chain: MFSYSDFCSIGTAMILSATTFLMGVFFSNMPYDYHLLFNPNSTQEHFDLALRHYQILHETPLPVIVTLCVVAGIGLVGGTIKVFKPNPELQMFEYCSLGLYVLAICVFLTNVKTGIDCSVSHNWGEVTENQGLAVIASSNIILLVMFAGVIILQIGLWYSNWDLQKRLKEFYAQEEREAANAGKKTEKVDNAKKNDNKSKGAQKRKNAKK
